According to paper PMC8382196:
Results are given in words; binding and its absence hold for the method and conditions named. Binding seen in cells or lysates may run through a third protein. Some entries that bind do so weakly or less than the wild type.

Chains of the proteins cited; added tags and fusions are not shown.
UniProt B3VKG9: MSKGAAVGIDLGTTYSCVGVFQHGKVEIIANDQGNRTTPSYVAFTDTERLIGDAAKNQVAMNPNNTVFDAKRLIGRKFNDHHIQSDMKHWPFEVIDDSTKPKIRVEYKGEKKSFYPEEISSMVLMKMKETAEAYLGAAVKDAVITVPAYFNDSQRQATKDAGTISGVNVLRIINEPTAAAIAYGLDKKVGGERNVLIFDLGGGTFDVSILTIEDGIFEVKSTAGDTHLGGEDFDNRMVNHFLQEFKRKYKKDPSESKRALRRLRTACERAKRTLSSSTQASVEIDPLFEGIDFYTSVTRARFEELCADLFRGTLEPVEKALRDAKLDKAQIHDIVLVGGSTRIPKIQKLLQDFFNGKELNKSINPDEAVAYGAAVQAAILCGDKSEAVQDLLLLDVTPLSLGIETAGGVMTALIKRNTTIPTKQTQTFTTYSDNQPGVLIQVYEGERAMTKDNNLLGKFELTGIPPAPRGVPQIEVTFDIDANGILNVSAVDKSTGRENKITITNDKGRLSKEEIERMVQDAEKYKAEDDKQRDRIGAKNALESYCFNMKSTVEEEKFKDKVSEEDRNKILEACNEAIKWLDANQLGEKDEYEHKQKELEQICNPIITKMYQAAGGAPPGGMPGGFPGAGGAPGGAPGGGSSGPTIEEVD
UniProt A0A0F7W424: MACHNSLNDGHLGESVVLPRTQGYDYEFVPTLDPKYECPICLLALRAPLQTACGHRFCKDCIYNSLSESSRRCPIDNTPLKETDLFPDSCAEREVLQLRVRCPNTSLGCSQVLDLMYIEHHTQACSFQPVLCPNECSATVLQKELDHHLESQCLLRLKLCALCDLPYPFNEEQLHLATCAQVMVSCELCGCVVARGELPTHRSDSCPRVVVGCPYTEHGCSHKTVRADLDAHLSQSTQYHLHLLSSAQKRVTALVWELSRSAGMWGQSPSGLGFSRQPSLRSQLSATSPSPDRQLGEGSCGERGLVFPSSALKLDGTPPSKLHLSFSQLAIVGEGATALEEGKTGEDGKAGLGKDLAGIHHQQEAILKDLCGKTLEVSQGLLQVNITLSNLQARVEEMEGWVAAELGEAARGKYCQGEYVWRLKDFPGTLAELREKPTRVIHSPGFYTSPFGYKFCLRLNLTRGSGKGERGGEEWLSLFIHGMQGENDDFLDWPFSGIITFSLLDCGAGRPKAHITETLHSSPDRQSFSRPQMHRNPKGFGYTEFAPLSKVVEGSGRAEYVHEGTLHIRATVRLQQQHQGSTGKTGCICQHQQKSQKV

Columns and labels:
[1] = target: heat shock protein 70 (Scylla paramamosain (endogenous in mud crab hemocytes)) (UniProt B3VKG9); assay: co-IP; mud crab hemocyte lysate, Co-IP with anti-HSP70 IgG, anti-TRAF6 IgG or anti-Ecsit IgG on Protein G-agarose beads, 4°C overnight, Western blot of the IP products; also crabs challenged with Vp, Vp+Exosome-PBS or Vp+Exosome-Vp before the Co-IP
[2] = target: TNF receptor associated factor 6 (Scylla paramamosain (endogenous in mud crab hemocytes)); assay: as above

Row | binding [1] | binding [2] | Substance
1 | binds |  | TNF receptor associated factor 6 (from UniProt A0A0F7W424 1-598)
2 |  | binds | heat shock protein 70 (from UniProt B3VKG9 1-650)
